According to paper PMC10051276:
No constants are given. Whether binding was seen depends on the method and setting. In cells and extracts the contact can be indirect. A result given as binding can be weak or reduced; the word gives no strength.

The chains behind the UniProt entries cited, without tags or fusion partners. Where a name states a change or a piece, a line headed by the entry shows the natural chain unless it says otherwise.
UniProt Q584U7: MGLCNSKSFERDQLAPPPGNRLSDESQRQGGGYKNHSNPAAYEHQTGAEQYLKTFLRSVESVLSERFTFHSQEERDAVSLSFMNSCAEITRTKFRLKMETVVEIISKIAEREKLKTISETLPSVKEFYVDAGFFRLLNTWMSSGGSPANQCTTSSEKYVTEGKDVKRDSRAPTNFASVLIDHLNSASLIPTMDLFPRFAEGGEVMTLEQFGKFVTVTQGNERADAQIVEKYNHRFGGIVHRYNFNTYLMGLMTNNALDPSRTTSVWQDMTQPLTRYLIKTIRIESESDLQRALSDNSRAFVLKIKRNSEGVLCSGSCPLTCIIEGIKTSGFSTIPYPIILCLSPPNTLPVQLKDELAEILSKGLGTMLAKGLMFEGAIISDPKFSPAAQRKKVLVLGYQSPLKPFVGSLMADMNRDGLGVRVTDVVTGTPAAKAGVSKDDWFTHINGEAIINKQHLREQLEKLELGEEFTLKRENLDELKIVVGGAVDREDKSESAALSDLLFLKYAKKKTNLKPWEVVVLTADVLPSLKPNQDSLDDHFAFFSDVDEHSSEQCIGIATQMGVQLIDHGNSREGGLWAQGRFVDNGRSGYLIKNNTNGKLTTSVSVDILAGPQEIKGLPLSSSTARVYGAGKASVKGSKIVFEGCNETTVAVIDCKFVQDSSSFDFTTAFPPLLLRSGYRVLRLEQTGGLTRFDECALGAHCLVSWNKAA

Molecular target: TbPI-PLC1 endogenously tagged with hemagglutinin (HA) (T. brucei) (UniProt Q385H1)
Test: co-IP; T. brucei PCF line with TbPI-PLC1 endogenously tagged with HA; TbPI-PLC-like untagged; most TbPI-PLC-like in the flow through; found in five independent experiments

TbPI-PLC-like (from UniProt Q584U7)
binding: binds weakly
